Results as given in the supplement of paper PMC10849652.
The list shows a part of the results. Residues, ends and D or L forms follow the SMILES beside them. *: point of attachment. Cbz = O=C(OCc1ccccc1)*

Sequences of proteins named here, by UniProt entry; tags and fusion partners are left off. A change or cut given only in a name is not applied to a line headed by its entry.
UniProt P35443: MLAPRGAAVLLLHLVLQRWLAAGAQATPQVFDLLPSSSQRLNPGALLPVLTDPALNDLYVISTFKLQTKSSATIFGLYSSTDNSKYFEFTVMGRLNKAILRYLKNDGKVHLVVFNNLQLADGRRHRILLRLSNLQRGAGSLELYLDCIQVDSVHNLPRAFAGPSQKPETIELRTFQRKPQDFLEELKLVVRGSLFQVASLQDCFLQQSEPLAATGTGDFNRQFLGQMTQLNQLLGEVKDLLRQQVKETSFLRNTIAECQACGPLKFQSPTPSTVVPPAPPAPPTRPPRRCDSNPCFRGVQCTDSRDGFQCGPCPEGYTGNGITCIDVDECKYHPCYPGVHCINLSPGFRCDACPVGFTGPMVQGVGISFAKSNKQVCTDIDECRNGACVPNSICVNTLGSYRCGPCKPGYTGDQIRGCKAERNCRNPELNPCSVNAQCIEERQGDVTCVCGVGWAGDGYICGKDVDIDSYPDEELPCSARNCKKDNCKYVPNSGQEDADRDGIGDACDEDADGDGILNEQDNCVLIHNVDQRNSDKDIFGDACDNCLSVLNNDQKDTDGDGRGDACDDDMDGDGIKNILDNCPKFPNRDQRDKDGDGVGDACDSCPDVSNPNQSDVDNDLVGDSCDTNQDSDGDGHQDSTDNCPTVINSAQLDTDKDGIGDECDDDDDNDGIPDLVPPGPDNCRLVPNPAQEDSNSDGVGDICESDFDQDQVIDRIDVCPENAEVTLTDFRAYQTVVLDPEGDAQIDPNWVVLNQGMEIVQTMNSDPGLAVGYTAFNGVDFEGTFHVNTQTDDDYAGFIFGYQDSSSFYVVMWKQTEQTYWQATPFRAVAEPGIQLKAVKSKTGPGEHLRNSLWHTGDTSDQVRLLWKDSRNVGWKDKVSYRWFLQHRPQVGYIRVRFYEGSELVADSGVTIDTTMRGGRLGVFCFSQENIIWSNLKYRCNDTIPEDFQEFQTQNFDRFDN
UniProt Q03167: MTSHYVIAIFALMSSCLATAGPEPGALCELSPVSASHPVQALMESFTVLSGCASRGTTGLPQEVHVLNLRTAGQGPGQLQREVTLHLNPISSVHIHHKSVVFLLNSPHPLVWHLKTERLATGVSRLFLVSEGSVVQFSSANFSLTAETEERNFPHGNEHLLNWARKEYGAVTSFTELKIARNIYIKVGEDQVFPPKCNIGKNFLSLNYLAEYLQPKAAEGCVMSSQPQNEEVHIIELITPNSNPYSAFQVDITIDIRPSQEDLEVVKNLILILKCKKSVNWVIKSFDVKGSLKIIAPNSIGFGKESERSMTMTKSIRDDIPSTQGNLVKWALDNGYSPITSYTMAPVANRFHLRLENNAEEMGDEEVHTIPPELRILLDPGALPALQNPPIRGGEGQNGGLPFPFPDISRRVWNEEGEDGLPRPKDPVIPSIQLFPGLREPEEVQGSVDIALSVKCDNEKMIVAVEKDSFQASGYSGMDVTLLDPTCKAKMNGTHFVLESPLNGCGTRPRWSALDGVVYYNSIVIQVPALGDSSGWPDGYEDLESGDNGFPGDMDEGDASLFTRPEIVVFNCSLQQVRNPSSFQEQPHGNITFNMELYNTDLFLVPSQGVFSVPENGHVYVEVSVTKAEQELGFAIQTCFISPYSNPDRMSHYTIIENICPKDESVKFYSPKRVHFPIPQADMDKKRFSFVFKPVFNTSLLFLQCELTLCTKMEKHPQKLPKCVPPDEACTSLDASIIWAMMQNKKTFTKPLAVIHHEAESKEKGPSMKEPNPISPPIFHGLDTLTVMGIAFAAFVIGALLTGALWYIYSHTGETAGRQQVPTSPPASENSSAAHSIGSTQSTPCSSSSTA
UniProt O75347: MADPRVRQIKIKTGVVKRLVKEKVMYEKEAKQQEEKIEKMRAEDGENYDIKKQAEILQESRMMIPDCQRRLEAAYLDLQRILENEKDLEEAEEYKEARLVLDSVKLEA
UniProt P17987, whole entry, looked up: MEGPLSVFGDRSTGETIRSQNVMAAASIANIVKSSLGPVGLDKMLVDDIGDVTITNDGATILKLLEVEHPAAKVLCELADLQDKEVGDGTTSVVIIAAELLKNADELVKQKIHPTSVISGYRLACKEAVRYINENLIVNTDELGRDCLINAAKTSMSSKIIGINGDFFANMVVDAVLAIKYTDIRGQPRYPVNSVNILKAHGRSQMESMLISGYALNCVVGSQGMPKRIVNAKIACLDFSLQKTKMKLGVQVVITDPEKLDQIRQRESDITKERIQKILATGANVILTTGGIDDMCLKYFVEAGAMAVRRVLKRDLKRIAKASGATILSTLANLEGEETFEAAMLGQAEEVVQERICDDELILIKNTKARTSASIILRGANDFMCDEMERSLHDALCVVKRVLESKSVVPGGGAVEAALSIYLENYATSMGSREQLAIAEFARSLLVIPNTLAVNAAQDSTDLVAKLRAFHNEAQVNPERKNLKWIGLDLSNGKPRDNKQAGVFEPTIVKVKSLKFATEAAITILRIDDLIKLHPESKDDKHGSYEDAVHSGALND
UniProt Q5JTD0: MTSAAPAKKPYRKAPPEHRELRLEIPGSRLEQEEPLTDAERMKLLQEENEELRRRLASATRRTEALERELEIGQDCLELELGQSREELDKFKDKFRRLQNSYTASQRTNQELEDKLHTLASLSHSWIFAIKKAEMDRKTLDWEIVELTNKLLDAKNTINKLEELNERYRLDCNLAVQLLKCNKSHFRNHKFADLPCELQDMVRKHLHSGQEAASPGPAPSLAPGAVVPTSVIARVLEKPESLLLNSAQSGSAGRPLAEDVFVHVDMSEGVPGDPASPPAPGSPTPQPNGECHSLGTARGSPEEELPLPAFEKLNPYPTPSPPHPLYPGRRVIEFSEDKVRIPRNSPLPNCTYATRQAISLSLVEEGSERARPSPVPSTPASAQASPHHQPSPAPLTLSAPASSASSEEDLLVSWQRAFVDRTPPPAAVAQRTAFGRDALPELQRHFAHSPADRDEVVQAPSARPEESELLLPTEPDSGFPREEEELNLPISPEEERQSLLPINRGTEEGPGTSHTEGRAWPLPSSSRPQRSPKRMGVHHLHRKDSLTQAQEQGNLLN
UniProt P31483: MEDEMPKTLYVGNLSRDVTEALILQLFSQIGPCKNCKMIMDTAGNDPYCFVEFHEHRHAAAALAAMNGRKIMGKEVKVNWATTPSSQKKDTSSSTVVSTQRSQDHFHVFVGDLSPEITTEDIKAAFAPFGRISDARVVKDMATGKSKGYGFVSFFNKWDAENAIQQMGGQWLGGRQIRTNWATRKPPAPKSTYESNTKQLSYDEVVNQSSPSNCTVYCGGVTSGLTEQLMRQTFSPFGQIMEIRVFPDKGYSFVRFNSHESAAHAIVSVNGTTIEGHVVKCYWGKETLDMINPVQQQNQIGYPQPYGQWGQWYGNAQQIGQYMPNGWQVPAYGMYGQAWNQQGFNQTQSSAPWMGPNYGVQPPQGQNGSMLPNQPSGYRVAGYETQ
UniProt O14925: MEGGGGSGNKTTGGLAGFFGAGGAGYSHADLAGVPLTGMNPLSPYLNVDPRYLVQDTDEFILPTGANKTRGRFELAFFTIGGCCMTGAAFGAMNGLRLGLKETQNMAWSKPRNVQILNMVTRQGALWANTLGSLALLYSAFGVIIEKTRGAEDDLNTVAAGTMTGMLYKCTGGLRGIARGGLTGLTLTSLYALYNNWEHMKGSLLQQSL
UniProt O60343: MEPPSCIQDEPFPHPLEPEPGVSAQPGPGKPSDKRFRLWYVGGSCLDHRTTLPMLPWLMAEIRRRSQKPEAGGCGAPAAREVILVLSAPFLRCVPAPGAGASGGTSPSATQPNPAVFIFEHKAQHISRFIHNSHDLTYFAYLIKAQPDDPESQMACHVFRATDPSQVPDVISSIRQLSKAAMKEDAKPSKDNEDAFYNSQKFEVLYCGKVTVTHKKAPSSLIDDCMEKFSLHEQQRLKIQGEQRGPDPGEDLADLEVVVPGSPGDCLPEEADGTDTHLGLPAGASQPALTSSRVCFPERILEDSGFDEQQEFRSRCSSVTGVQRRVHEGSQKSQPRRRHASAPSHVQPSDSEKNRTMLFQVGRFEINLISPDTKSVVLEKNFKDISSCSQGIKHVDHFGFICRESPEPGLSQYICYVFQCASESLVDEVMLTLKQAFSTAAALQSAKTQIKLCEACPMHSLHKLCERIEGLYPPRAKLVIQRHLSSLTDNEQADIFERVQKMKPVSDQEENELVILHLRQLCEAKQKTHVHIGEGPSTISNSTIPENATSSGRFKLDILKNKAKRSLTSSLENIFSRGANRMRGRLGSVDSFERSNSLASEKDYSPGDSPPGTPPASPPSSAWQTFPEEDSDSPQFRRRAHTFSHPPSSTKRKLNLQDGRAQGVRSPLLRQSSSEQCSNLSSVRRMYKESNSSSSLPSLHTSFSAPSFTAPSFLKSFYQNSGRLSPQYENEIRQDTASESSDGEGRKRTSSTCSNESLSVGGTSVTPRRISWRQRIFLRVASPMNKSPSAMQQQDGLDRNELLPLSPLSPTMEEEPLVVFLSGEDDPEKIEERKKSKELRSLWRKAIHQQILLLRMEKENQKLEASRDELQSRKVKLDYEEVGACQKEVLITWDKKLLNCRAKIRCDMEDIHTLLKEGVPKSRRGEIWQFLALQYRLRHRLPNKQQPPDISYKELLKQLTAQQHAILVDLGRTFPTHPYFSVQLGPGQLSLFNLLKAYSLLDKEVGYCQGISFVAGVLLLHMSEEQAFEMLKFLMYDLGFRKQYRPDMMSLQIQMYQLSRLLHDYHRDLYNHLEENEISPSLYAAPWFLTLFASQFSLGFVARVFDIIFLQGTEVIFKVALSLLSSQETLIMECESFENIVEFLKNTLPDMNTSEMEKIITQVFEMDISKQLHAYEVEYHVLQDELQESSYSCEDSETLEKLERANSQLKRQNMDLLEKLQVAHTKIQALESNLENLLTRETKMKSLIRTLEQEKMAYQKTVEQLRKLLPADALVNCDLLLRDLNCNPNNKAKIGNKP
UniProt Q96MV1: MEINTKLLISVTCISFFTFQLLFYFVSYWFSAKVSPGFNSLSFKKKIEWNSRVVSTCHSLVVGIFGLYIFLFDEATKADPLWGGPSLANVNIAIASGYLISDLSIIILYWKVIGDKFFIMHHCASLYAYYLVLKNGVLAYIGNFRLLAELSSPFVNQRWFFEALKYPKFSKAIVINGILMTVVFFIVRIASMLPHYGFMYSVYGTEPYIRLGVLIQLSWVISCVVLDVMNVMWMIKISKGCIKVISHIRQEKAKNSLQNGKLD
UniProt Q9UGI8: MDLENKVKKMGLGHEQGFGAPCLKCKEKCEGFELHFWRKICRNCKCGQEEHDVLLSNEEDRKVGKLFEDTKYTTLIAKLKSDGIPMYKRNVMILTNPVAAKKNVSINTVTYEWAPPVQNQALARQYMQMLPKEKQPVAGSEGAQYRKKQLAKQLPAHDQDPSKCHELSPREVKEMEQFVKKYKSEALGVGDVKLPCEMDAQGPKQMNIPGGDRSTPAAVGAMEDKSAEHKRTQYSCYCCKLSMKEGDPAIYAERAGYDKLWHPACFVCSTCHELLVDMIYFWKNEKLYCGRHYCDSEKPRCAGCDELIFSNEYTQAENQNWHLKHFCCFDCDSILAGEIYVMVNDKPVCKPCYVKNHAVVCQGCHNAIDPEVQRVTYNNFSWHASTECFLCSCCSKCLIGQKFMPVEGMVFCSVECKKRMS
UniProt P15923: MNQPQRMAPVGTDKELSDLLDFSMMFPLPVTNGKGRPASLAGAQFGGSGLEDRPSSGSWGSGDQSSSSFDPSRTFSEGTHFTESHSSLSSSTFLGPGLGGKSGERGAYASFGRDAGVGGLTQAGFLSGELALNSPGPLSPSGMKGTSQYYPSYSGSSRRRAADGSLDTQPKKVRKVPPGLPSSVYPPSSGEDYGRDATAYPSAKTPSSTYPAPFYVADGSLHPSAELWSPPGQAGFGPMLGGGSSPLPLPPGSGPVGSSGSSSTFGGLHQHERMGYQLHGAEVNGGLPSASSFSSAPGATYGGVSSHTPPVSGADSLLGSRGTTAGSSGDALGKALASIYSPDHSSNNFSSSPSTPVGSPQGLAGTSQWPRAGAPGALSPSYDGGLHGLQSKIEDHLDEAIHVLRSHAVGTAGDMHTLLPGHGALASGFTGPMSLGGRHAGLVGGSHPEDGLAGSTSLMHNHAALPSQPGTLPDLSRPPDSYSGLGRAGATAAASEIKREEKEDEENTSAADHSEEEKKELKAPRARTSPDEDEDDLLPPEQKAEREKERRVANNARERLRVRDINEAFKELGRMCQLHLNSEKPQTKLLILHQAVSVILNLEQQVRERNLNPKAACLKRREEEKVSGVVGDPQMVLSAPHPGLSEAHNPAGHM

Columns and labels:
Assay in all cases: log2 fold change, soluble protein after heating vs DMSO (PISA); higher = thermal stabilisation; K562 cells, 10 uM, 30 min; active = over 0.2 and 3.5 SD of the protein, either way, in both replicates (recomputed)
erlotinib = compound: C#Cc1cccc(Nc2ncnc3cc(OCCOC)c(OCCOC)cc23)c1 [erlotinib]
Outline: (§1)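 K562 cells at 2×10^6 cells/mL were exposed to 10 μM compound for 30 min, then aliquots were heated for 3 min across 48°C-58°C, pooled, and extracted in PBS containing 0.5% NP-40 at 4°C. The supernatant after 21,000xg for 90 min was taken as soluble protein and measured by TMTpro 16plex LC-MS/MS with channel sums equalised. Thermal stability is reported relative to control samples, with values from duplicates. Fold changes are given on a log2 scale.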

[1] = compound: C/C(=N\NC(=O)C1=CC(=CC=C1)S(=O)(=O)N2CCOCC2)/C3=C(C=CC(=C3)Cl)O
Outline: as §1

[2] = compound: C1=CC(=C(C=C1Cl)C2=NC3=NC=CN=C3C(=N2)NC4=CC=NC=C4)F
Outline: as §1

[3] = compound: C1=CC(=CC=C1C2=NC3=C(N2)C=C(C=C3)C(=O)N)OC4=CC=C(C=C4)Cl
Outline: as §1

[4] = compound: C1=CC2=C(C=CC(=C2)/C=C\3/C(=O)NC(=NCC4=CC=CS4)S3)N=C1
Outline: as §1

[5] = compound: C1=CC2=NC=CN=C2C=C1/C=C/3\C(=O)NC(=O)S3
Outline: as §1

[6] = compound: C1=CC=C(C=C1)C2=NC(=C(N2)C3=CC=NC=C3)C4=CC(=C(C=C4)Cl)O
Outline: as §1

[7] = compound: C1=CC=C2C(=C1)C3=NNC4=CC=CC(=C43)C2=O
Outline: as §1

[8] = compound: C1CCN(C1)C(=O)NC2=CC=CC(=C2)NC3=NC=C(C(=N3)NCCC4=CN=CN4)Br
Outline: as §1

[9] = compound: C1CN(CCC1(CC2=CC=C(C=C2)Cl)N)C3=NC=NC4=C3C=CN4
Outline: as §1

IRAK-1-4 Inhibitor I = compound: C1COCCN1CCN2C3=CC=CC=C3N=C2NC(=O)C4=CC(=CC=C4)[N+](=O)[O-] [IRAK-1-4 Inhibitor I]
Outline: as §1

ibrutinib = compound: C=CC(=O)N1CCC[C@@H](n2nc(-c3ccc(Oc4ccccc4)cc3)c3c(N)ncnc32)C1 [ibrutinib]
Outline: as §1

[10] = compound: CC(=O)c1cnc2ccc(-c3cc(Cl)c(O)c(Cl)c3)nc2c1N[C@H]1CC[C@H](CN(C)C)CC1
Outline: as §1

ralimetinib = compound: CC(C)(C)Cn1c(N)nc2ccc(-c3[nH]c(C(C)(C)C)nc3-c3ccc(F)cc3)nc21 [ralimetinib]
Outline: as §1

[11] = compound: CC(C)(O)CC(=O)NCCn1ccc2ncnc(Nc3ccc(Oc4cccc(C(F)(F)F)c4)c(Cl)c3)c21
Outline: as §1

[12] = compound: CC(C)C1=C2N=C(C=C(N2N=C1)NCC3=CC=CC=C3)NCCCCCCN
Outline: as §1

[13] = compound: CC(C)C[C@@H](C=O)NC(=O)[C@H](CC(C)C)NC(=O)[C@H](CC(C)C)NC(=O)OCc1ccccc1
Outline: as §1

pinometostat = compound: CC(C)N(C[C@H]1O[C@@H](n2cnc3c(N)ncnc32)[C@H](O)[C@@H]1O)[C@H]1C[C@@H](CCc2nc3cc(C(C)(C)C)ccc3[nH]2)C1 [pinometostat]
Outline: as §1

[14] = compound: CC1=C(C(CC(=O)N1)C2=CC=C(C=C2)C(F)(F)F)C(=O)NC3=C(C=C4C(=C3)C=NN4)F
Outline: as §1

[15] = compound: CC1=C(C2=C(C=C1)C(=O)C3=CC=CC=C3N2CCCN)C
Outline: as §1

Measured: log2 fold change

TCEA1 (UniProt P23193)
inactive: erlotinib -0.034 | [1] -0.003 | [2] 0.085 | [3] -0.001 | [4] -0.036 | [5] 0.003 | [6] 0.001 | [7] 0.024 | [8] 0.001 | [9] 0.076 | IRAK-1-4 Inhibitor I 0.041 | ibrutinib -0.025 | [10] 0.001 | ralimetinib -0.038 | [11] 0 | [12] 0.029 | [13] -0.013 | pinometostat -0.068 | [14] 0.022 | [15] 0.011

THOC2 (UniProt Q8NI27)
inactive: erlotinib -0.019 | [1] 0.016 | [2] -0.137 | [3] -0.008 | [4] -0.061 | [5] 0.027 | [6] -0.039 | [7] -0.035 | [8] -0.019 | [9] -0.043 | IRAK-1-4 Inhibitor I -0.085 | ibrutinib -0.043 | [10] -0.012 | ralimetinib 0.078 | [11] -0.052 | [12] -0.144 | [13] 0.072 | pinometostat 0.162 | [14] -0.031 | [15] 0.156

THBS4 (UniProt P35443)
inactive: erlotinib -0.218 | [1] -0.23 | [2] 0.029 | [3] -0.106 | [4] 0.126 | [5] 0.011 | [6] 0.036 | [7] -0.22 | [8] 0.063 | [9] 0.154 | IRAK-1-4 Inhibitor I 0.022 | ibrutinib 0.163 | [10] 0.059 | ralimetinib -0.046 | [11] 0.204 | [12] 0.546 | [13] 0.086 | pinometostat -0.054 | [14] 0.075 | [15] -0.241

TGFBR3 (UniProt Q03167)
inactive: erlotinib -0.06 | [1] -0.008 | [2] -0.03 | [3] 0.053 | [4] 0.006 | [5] -0.016 | [6] 0.104 | [7] -0.037 | [8] -0.006 | [9] 0.046 | IRAK-1-4 Inhibitor I -0.007 | ibrutinib 0.01 | [10] -0.059 | ralimetinib 0.02 | [11] 0.013 | [12] 0.181 | [13] 0.001 | pinometostat 0.088 | [14] 0.039 | [15] -0.083

THUMPD3 (UniProt Q9BV44)
inactive: erlotinib -0.001 | [1] 0.036 | [2] 0.072 | [3] 0.005 | [4] 0.029 | [5] 0.016 | [6] 0.039 | [7] 0.006 | [8] -0.059 | [9] 0.044 | IRAK-1-4 Inhibitor I 0.024 | ibrutinib -0.007 | [10] -0.023 | ralimetinib -0.011 | [11] -0.045 | [12] -0.018 | [13] -0.025 | pinometostat -0.021 | [14] 0.007 | [15] 0.101

TBCA (UniProt O75347)
inactive: erlotinib 0.027 | [1] -0.01 | [2] 0.039 | [3] -0.015 | [4] -0.03 | [5] -0.003 | [6] -0.026 | [7] 0.018 | [8] 0.082 | [9] 0.072 | IRAK-1-4 Inhibitor I 0.023 | ibrutinib 0 | [10] 0.023 | ralimetinib -0.038 | [11] 0.031 | [12] 0.064 | [13] 0.014 | pinometostat -0.047 | [14] 0.032 | [15] -0.046

TCP1 (UniProt P17987)
inactive: erlotinib -0.018 | [1] 0.001 | [2] 0.024 | [3] -0.012 | [4] -0.007 | [5] -0.017 | [6] -0.012 | [7] 0.015 | [8] -0.001 | [9] 0.011 | IRAK-1-4 Inhibitor I 0.009 | ibrutinib 0.009 | [10] 0.014 | ralimetinib -0.004 | [11] -0.003 | [12] 0.025 | [13] -0.03 | pinometostat -0.02 | [14] 0.034 | [15] 0.023

TJAP1 (UniProt Q5JTD0)
inactive: erlotinib -0.028 | [1] 0.002 | [2] -0.017 | [3] 0.001 | [4] -0.073 | [5] 0.022 | [6] 0.015 | [7] 0.036 | [8] 0.012 | [9] -0.064 | IRAK-1-4 Inhibitor I -0.011 | ibrutinib 0.028 | [10] 0.176 | ralimetinib -0.084 | [11] -0.019 | [12] 0.01 | [13] 0.014 | pinometostat -0.012 | [14] 0.016 | [15] -0.164

TGFB1 (UniProt P01137)
inactive: erlotinib -0.038 | [1] 0.012 | [2] 0.055 | [3] 0.028 | [4] 0.044 | [5] 0.015 | [6] 0.002 | [7] -0.005 | [8] -0.005 | [9] 0.008 | IRAK-1-4 Inhibitor I 0 | ibrutinib 0.01 | [10] 0.025 | ralimetinib -0.015 | [11] -0.006 | [12] 0.004 | [13] 0.068 | pinometostat 0 | [14] 0.001 | [15] -0.02

TIA1 (UniProt P31483)
inactive: erlotinib 0.086 | [1] 0.003 | [2] -0.073 | [3] 0.038 | [4] 0.028 | [5] -0.032 | [6] -0.057 | [7] -0.034 | [8] -0.002 | [9] -0.03 | IRAK-1-4 Inhibitor I 0.096 | ibrutinib 0.032 | [10] -0.019 | ralimetinib -0.028 | [11] 0.079 | [12] 0.038 | [13] -0.033 | pinometostat -0.024 | [14] 0.017 | [15] 0.172

TF (UniProt P02787)
inactive: erlotinib -0.138 | [1] -0.168 | [2] 0.122 | [3] 0.15 | [4] 0.158 | [5] -0.053 | [6] 0.033 | [7] -0.153 | [8] 0.289 | [9] 0.304 | IRAK-1-4 Inhibitor I 0.184 | ibrutinib 0.144 | [10] 0.103 | ralimetinib -0.011 | [11] 0.304 | [12] 0.043 | [13] 0.101 | pinometostat -0.051 | [14] -0.031 | [15] -0.205

TIMM23 (UniProt O14925)
inactive: erlotinib 0.002 | [1] -0.036 | [2] 0.006 | [3] 0.019 | [4] -0.064 | [5] 0.078 | [6] 0.105 | [7] -0.03 | [8] 0.004 | [9] 0.057 | IRAK-1-4 Inhibitor I 0.009 | ibrutinib 0.015 | [10] 0.011 | ralimetinib 0.075 | [11] -0.004 | [12] 0.038 | [13] -0.039 | pinometostat -0.067 | [14] -0.013 | [15] -0.036

TBC1D4 (UniProt O60343)
inactive: erlotinib -0.021 | [1] 0.058 | [2] 0.03 | [3] 0.033 | [4] 0.034 | [5] 0.018 | [6] -0.008 | [7] -0.034 | [8] -0.066 | [9] 0.004 | IRAK-1-4 Inhibitor I 0.09 | ibrutinib -0.079 | [10] -0.095 | ralimetinib 0.072 | [11] -0.073 | [12] -0.098 | [13] 0.01 | pinometostat -0.025 | [14] 0.045 | [15] -0.031

Random excerpt: two entries already listed.
TIMM23 (UniProt O14925)
inactive: erlotinib 0.002 | [1] -0.036 | [2] 0.006 | [3] 0.019 | [4] -0.064 | [5] 0.078 | [6] 0.105 | [7] -0.03 | [8] 0.004 | [9] 0.057 | IRAK-1-4 Inhibitor I 0.009 | ibrutinib 0.015 | [10] 0.011 | ralimetinib 0.075 | [11] -0.004 | [12] 0.038 | [13] -0.039 | pinometostat -0.067 | [14] -0.013 | [15] -0.036

TF (UniProt P02787)
inactive: erlotinib -0.138 | [1] -0.168 | [2] 0.122 | [3] 0.15 | [4] 0.158 | [5] -0.053 | [6] 0.033 | [7] -0.153 | [8] 0.289 | [9] 0.304 | IRAK-1-4 Inhibitor I 0.184 | ibrutinib 0.144 | [10] 0.103 | ralimetinib -0.011 | [11] 0.304 | [12] 0.043 | [13] 0.101 | pinometostat -0.051 | [14] -0.031 | [15] -0.205

More records follow.

TLCD4 (UniProt Q96MV1)
inactive: erlotinib -0.043 | [1] 0.018 | [2] 0 | [3] 0.004 | [4] 0.009 | [5] -0.003 | [6] 0.066 | [7] 0.021 | [8] -0.088 | [9] 0.092 | IRAK-1-4 Inhibitor I -0.017 | ibrutinib 0.012 | [10] -0.013 | ralimetinib 0.029 | [11] -0.012 | [12] 0.063 | [13] -0.079 | pinometostat -0.085 | [14] -0.043 | [15] -0.002

TES (UniProt Q9UGI8)
inactive: erlotinib 0.007 | [1] 0.008 | [2] 0.101 | [3] -0.022 | [4] -0.089 | [5] 0.031 | [6] 0.011 | [7] -0.002 | [8] 0.009 | [9] 0.072 | IRAK-1-4 Inhibitor I 0.056 | ibrutinib -0.029 | [10] 0.041 | ralimetinib -0.012 | [11] -0.004 | [12] 0.056 | [13] -0.005 | pinometostat -0.034 | [14] -0.001 | [15] -0.049

TCF3 (UniProt P15923)
inactive: erlotinib 0.018 | [1] 0.129 | [2] 0.029 | [3] 0.049 | [4] -0.102 | [5] 0.027 | [6] 0.007 | [7] -0.088 | [8] 0.029 | [9] -0.053 | IRAK-1-4 Inhibitor I 0.03 | ibrutinib -0.046 | [10] -0.015 | ralimetinib 0.069 | [11] -0.061 | [12] -0.075 | [13] 0.004 | pinometostat 0.032 | [14] -0.022 | [15] 0.026
